Reference: article PMC6019448

Experiments:
[1] = molecular target: T1, duck RIG-I (duck) (UniProt D3TI84); assay: co-IP
T1 sequence: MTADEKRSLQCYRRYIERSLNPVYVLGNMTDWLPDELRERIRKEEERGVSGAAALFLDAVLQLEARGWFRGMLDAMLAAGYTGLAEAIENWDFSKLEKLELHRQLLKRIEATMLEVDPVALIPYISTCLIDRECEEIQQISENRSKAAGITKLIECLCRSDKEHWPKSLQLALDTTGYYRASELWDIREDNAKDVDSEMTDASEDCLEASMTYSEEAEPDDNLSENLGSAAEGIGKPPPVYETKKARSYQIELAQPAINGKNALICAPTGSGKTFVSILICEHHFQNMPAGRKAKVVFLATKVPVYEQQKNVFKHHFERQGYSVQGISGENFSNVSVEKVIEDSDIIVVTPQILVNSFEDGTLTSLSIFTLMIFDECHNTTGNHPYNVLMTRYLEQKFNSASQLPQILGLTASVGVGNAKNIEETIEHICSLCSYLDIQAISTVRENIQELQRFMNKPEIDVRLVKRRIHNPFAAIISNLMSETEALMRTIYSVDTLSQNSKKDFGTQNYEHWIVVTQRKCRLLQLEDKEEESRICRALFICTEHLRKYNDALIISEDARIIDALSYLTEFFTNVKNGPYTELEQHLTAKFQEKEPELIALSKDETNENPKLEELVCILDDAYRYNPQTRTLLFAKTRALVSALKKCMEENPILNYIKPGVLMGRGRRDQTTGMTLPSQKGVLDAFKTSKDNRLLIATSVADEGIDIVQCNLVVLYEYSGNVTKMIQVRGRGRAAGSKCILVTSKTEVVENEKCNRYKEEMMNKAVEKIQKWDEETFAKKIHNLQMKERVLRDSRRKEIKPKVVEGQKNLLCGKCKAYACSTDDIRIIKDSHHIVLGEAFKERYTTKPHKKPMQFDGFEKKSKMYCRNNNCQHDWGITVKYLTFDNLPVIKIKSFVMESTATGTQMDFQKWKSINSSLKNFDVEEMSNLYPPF

[2] = molecular target: T2, duck RIG-I, Gal4 DNA-binding domain fusion (bait) (duck) (UniProt D3TI84); assay: two-hybrid; full-length RIG-I as Gal4 DNA-binding domain bait (pGBKT7), OASL proteins as prey (pGADT7), S. cerevisiae AH109; selection on double-, triple- and quadruple-dropout medium
T2 sequence: T1 sequence

[3] = molecular target: T3, mouse RIG-I (mouse) (UniProt Q6Q899); assay: co-IP; 293T cells transfected with equal amounts of Flag- and Myc-tagged plasmids, lysed 24 h after transfection; anti-Flag IP with protein A + G agarose overnight at 4°C, Western blot with c-Myc antibody
T3 sequence: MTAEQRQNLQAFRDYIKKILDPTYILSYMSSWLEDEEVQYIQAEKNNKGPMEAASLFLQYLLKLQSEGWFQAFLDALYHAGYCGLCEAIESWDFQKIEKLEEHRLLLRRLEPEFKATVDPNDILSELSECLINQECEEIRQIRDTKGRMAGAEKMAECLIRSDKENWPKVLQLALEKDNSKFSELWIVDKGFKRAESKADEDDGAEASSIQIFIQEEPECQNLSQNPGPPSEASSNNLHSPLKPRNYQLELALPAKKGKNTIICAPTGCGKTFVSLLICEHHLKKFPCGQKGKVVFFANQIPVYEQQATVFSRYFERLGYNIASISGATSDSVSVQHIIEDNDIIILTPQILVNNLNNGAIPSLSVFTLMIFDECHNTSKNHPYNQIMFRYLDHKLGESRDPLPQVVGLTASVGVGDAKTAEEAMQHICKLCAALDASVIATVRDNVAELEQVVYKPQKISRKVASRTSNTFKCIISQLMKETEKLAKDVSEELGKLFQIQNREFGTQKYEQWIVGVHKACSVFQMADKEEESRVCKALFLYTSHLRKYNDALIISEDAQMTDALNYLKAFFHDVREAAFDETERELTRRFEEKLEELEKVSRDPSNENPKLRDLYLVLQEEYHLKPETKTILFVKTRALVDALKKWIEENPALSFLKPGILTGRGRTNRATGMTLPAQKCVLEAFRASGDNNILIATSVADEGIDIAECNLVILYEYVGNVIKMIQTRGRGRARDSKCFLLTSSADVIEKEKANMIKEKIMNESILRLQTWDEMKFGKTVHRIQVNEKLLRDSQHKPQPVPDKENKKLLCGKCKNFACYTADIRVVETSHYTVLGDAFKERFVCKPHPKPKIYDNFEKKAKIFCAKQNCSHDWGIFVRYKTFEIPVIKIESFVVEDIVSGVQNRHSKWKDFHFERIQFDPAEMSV

| Substance | binding [1] | binding [3] | further results |
| --- | --- | --- | --- |
| duck OASL, two-hybrid prey |  |  | binding [2]: no binding |
| duck OASL-3D* | binds |  |  |
| duck OASL-3D* OAS-like domain (domain or fragment) | binds |  |  |
| duck OASL-3D*, two-hybrid prey |  |  | binding [2]: binds |
| mouse Oasl2 OAS-like domain (domain or fragment) |  | binds |  |
| mouse Oasl2-3D* OAS-like domain (domain or fragment) |  | binds |  |

Further lines, with some results ahead:

| binding [1] | binding [3] | Substance | further results |
| --- | --- | --- | --- |
| binds |  | duck OASL |  |
|  | binds | mouse Oasl2-3D* lacking one UBL (domain or fragment) |  |

No constants are given. Whether binding was seen depends on the method and setting. A result given as binding can be weak or reduced; the word gives no strength. For some assays here: Where a sequence is shown, tags or fusion partners need not be part of it. For some assays here: In cells and extracts the contact can be indirect.
